PubChem BioAssay AID1159584, Peter MacCallum Cancer Centre – 2016

- Assay: 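Knock-downs that harm CDH1-null cells more than parental MCF10A cells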 (primary screen)
- Cell system: human MCF10A breast epithelial cells, parental and CDH1-null
- Reagents: siRNA against human genes
- Read-out: 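ATP luminescence (CellTiter-Glo) viability per line relative to mean mock wells over all plates, and the ratio of CDH1-null to parental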
- Scale: CDH1-null / parental viability ratio: higher = CDH1-null cells survive relatively better than parental; CDH1-null viability vs mock: higher = more viable CDH1-null cells; parental viability vs mock: higher = more viable parental cells
Shown is an unselected part of about 18,000 deposited reagents. Not given: the amount of reagent, the time to read-out.

gene	CDH1-null / parental viability ratio	CDH1-null viability vs mock (fraction of mock)	parental viability vs mock (fraction of mock)
TYMSOS (TYMS opposite strand RNA)	1.03	0.34	0.33
BMP4 (bone morphogenetic protein 4)	1.16	0.88	0.76
GLIS3 (GLIS family zinc finger 3)	1	0.57	0.57
TMEM176A (transmembrane protein 176A)	1.32	1.08	0.82
CNOT11 (CCR4-NOT transcription complex subunit 11)	1.12	0.9	0.8
QRFP (pyroglutamylated RFamide peptide)	1.69	1.08	0.64
EMG1 (EMG1 N1-specific pseudouridine methyltransferase)	0.87	0.4	0.46
BRS3 (bombesin receptor subtype 3)	1.53	0.84	0.55
OSCP1	0.91	0.73	0.8
STRN (striatin)	1.45	1.19	0.82
SIAH3 (siah E3 ubiquitin protein ligase family member 3)	1	0.86	0.86
CEP55 (centrosomal protein 55)	0.99	0.79	0.8
RPL13 (ribosomal protein L13)	1.33	0.64	0.48
PHTF1 (putative homeodomain transcription factor 1)	1.04	0.74	0.71
SRPX2 (sushi repeat containing protein X-linked 2)	0.81	0.83	1.03
SPRR4 (small proline rich protein 4)	1	0.74	0.74
SUMF1 (sulfatase modifying factor 1)	1.1	0.92	0.84
LHX6 (LIM homeobox 6)	1.15	1.1	0.96
SYNPO2 (synaptopodin 2)	0.91	0.8	0.88
CDC14A (cell division cycle 14A)	1.39	1	0.72
FXYD2 (FXYD domain containing ion transport regulator 2)	1.61	0.9	0.56
BRCA2 (BRCA2 DNA repair associated)	1.24	1.04	0.84
FSTL4 (follistatin like 4)	1.41	0.9	0.64
ZNF165 (zinc finger protein 165)	0.94	0.64	0.68
LINC02914 (long independently transcribed non-coding RNA 2914)	1	0.4	0.4
SPG11 (SPG11 vesicle trafficking associated, spatacsin)	0.92	0.79	0.86
ATP2B3 (ATPase plasma membrane Ca2+ transporting 3)	0.87	0.86	0.99
WFDC1 (WAP four-disulfide core domain 1)	1.06	0.54	0.51
TMEM179 (transmembrane protein 179)	1.17	0.89	0.76
OXR1 (oxidation resistance 1)	1.08	0.91	0.84
CLP1 (cleavage factor polyribonucleotide kinase subunit 1)	0.87	0.71	0.82
LPAR4 (lysophosphatidic acid receptor 4)	0.46	0.38	0.82
PSMD14 (proteasome 26S subunit, non-ATPase 14)	1.49	0.76	0.51
GML (glycosylphosphatidylinositol anchored molecule like)	0.86	0.55	0.64
AIMP1	0.93	0.4	0.43
HEXA (hexosaminidase subunit alpha)	0.91	0.7	0.77
PPP2R2B (protein phosphatase 2 regulatory subunit Bbeta)	1.2	0.84	0.7
ATG101 (autophagy related 101)	0.88	0.72	0.82
TTC32 (tetratricopeptide repeat domain 32)	1.15	0.71	0.62
BSPRY (B-box and SPRY domain containing)	1.14	1.05	0.92
ZNF674 (zinc finger protein 674)	1.23	0.81	0.66
PSME2 (proteasome activator subunit 2)	0.64	0.48	0.75
ABCD4 (ATP binding cassette subfamily D member 4)	1.06	0.88	0.83
IL3 (interleukin 3)	0.89	0.78	0.88
TPM2 (tropomyosin 2)	1.22	1.07	0.88
BTBD1 (BTB domain containing 1)	1.07	0.98	0.92

Taken from above:
For “parental viability vs mock (fraction of mock)”, CLP1 (cleavage factor polyribonucleotide kinase subunit 1) reads 0.82
AIMP1, CDH1-null viability vs mock (fraction of mock) = 0.4
Entry for SUMF1 (sulfatase modifying factor 1) in “CDH1-null / parental viability ratio”: 1.1
